Measurements reported in the supplement of paper PMC12823440, “Inhibitors supercharge kinase turnover through native proteolytic circuits” (Nature, 2025).
Counter-ions that a name gives are not always drawn. The list shows a part of the results. The calls rarely recur for the same compound in another form.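 Kinases were expressed as nanoluciferase fusions in K562 cells and luminescence was read every 4 h between 2 and 18 h as percent of control, DMSO set to 100% and a positive control to 0%. A time point counts as decreased when the signal drops significantly (2 sigma). The hit call is the authors' own, does not follow from the count of time points alone, and its rule is not shown.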

The chains behind the UniProt entries cited, without tags or fusion partners. Where a name states a change or a piece, a line headed by the entry shows the natural chain unless it says otherwise.
UniProt P48730: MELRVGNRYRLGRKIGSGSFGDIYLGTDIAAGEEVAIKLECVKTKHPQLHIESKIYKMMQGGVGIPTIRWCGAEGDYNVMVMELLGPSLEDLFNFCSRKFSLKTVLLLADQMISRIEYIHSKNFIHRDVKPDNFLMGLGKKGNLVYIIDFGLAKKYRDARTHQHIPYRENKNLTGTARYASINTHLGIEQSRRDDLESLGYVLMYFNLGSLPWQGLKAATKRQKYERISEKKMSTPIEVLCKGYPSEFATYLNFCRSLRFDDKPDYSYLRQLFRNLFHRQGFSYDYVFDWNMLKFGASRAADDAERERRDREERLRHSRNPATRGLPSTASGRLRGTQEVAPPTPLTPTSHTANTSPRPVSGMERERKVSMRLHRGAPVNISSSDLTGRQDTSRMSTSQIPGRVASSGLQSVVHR

Target: CSNK1D (UniProt P48730)
Experiment: kinase-Nluc reporter destabilization hit call (1 = scored as downregulated) (binary); higher = compound decreases kinase abundance
Conditions: K562; 2-18 h

kinase-Nluc reporter destabilization hit call, inactive:
N#Cc1ccc2[nH]c(O)c(-c3ccc(CN4CCOCC4)cn3)c2c1 (10 µM) 0
O=C1NCCc2[nH]c(-c3ccnc(-c4cnc5ccccc5c4)c3)cc21 (10 µM) 0
Oc1cc(O)cc(/C=C/c2ccc(O)c(O)c2)c1 [Piceatannol] (10 µM) 0
O=C(NOC[C@H](O)CO)c1ccc(F)c(F)c1Nc1ccc(I)cc1F (2.5 µM) 0
Cn1c(=O)n(-c2ccc(C(C)(C)C#N)cc2)c2c3cc(-c4cnc5ccccc5c4)ccc3ncc21 [Dactolisib (Tosylate)] (10 µM) 0
CCCCNc1ncc(-c2ccc(CN3CCOCC3)cn2)c(NC2CCC(O)CC2)n1 (stereo not given) (10 µM) 0
O=C(Nc1cc(C(F)(F)F)ccc1N1CCN(Cc2ccccn2)CC1)c1ccc(-c2ccncc2)o1 (10 µM) 0
CC[C@H](CO)Nc1nc(NCc2ccccc2)c2ncn(C(C)C)c2n1 [Seliciclib] (10 µM) 0
COC(=O)c1ccc2c(C(=Nc3ccc(N(C)C(=O)CN4CCN(C)CC4)cc3)c3ccccc3)c(O)[nH]c2c1 [Nintedanib] (2.5 µM) 0
COc1cc(F)cc([C@@H](CO)NC(=O)[C@@H](C)N2Cc3ccc(-c4nc(NC5CCOCC5)ncc4Cl)cc3C2=O)c1 [ERK1/2 inhibitor 2] (10 µM) 0
CC(C)c1ccc2oc3nc(N)c(C(=O)O)cc3c(=O)c2c1 [Amlexanox] (10 µM) 0
CN(C)C[C@@H]1CCn2cc(c3ccccc32)C2=C(C(=O)NC2=O)c2cn(c3ccccc23)CCO1 [Ruboxistaurin (hydrochloride)] (10 µM) 0
CCc1nc(-c2cccc(C)c2)c(-c2ccnc(NC(=O)c3ccccc3)c2)s1 (10 µM) 0
CCOc1cc2ncc(-c3cc(N)nc(F)c3)n2cc1S(=O)(=O)C(C)(C)C (10 µM) 0
CC(C)(/C=C(\C#N)C(=O)N1CCC[C@@H](n2nc(-c3ccc(Oc4ccccc4)cc3F)c3c(N)ncnc32)C1)N1CCN(C2COC2)CC1 (2.5 µM) 0
CCCn1cnc2c(NCc3ccccc3)nc(NC(CC)CO)nc21 (stereo not given) [Ca2+ channel agonist 1] (2.5 µM) 0
Brc1c(Br)c(Br)c2n[nH]nc2c1Br (10 µM) 0
Nc1nc(OCC2CCCCC2)c2[nH]cnc2n1 (10 µM) 0
COc1ccc(Oc2cc(NCCC(F)(F)F)c3ncc(-c4ccc(C(=O)NC5CC5)c(C)c4)n3n2)c(F)c1F (2.5 µM) 0
COc1cc(C(=O)NC2CCN(C)CC2)c(F)cc1Nc1ncc2c(n1)N(C1CCCC1)CC(F)(F)C(=O)N2C [TAK-960 (dihydrochloride)] (2.5 µM) 0
COc1ccc(NC(=O)N2CCN(c3nc(N)nc4c3cnn4C)[C@@H](C)C2)c(C)c1 (10 µM) 0
O=C(Nc1ccc(-c2ccnc(Nc3ccc(N4CCOCC4)cc3)n2)cc1)C1CCCN1 (stereo not given) (10 µM) 0
COc1nccc(-c2c(-c3ccc(F)cc3)ncn2C2CCC(O)CC2)n1 (stereo not given) (10 µM) 0
NC(=O)c1ccc2nc(-c3ccc(Oc4ccc(Cl)cc4)cc3)[nH]c2c1 (10 µM) 0
Cc1cc(C)c(/C=C2\C(=O)Nc3ccccc32)[nH]1 [Semaxinib] (10 µM) 0
COc1ccc(COc2ccc(Cc3cnc(N)nc3N)cc2OC)cc1 (10 µM) 0
CN1CCN(c2ccc(Nc3cc(-c4cccc(-n5ccc6cc(C7CC7)cc(F)c6c5=O)c4CO)cn(C)c3=O)nc2)CC1 (2.5 µM) 0
C=CC(=O)N1CCC[C@@H](n2nc(-c3ccc(Oc4ccccc4)cc3)c(C(N)=O)c2N)C1 [Btk inhibitor 2] (10 µM) 0
Cc1c(NC(=O)c2cc3c(s2)CCCC3)cccc1-c1cn(C)c(=O)c(Nc2ccc([C@@H]3C(=O)N(C)CCN3C)cc2)n1 (10 µM) 0
CCOc1ccn(-c2ccc(F)cc2)c(=O)c1C(=O)Nc1ccc(Oc2ccnc(N)c2Cl)c(F)c1 (10 µM) 0
CCn1c(=O)c2cc(C(N)=O)c(N)nc2n(C2CC2)c1=O (10 µM) 0
COc1cc(C(=O)NC2CCN(C)CC2)ccc1Nc1ncc2c(n1)N(C1CCCC1)CC(F)(F)C(=O)N2C (10 µM) 0
CCN1CCN(c2ccc(Nc3cc(N(C)C(=O)Nc4c(Cl)c(OC)cc(OC)c4Cl)ncn3)cc2)CC1 [Infigratinib] (10 µM) 0
CN1CCN(S(=O)(=O)c2ccc(-c3cnc(N)c(C(=O)Nc4cccnc4)n3)cc2)CC1 (10 µM) 0
Cc1cccc([C@@H](CO)NC(=O)[C@@H](C)N2Cc3ccc(-c4nc(NC5CCOCC5)ncc4Cl)cc3C2=O)c1 [ERK1/2 inhibitor 1] (10 µM) 0
COc1cc(CCc2cc(-c3nc4ccc(N5CCN(C)CC5)cc4[nH]3)n[nH]2)cc(OC)c1 (10 µM) 0
Cc1cc(CS(=O)(=O)c2ccccc2)cc(OCc2ccc(CN3CCC[C@@H]3CO)cc2)c1 [PF-543 (Citrate)] (10 µM) 0
Cc1[nH]c(/C=C2\C(=O)Nc3ccc(S(=O)(=O)Cc4c(Cl)cccc4Cl)cc32)c(C)c1C(=O)N1CCC[C@@H]1CN1CCCC1 (2.5 µM) 0
Cc1cc(F)c(C(=O)Nc2cccc(-c3nncn3C(C)C)n2)cc1-n1cnc(C2CC2)c1 [Selonsertib] (10 µM) 0
COCCOc1cc2nccc(Nc3n[nH]c(C)c3C)c2cc1S(=O)(=O)C(C)(C)C [RIP2 kinase inhibitor 2] (2.5 µM) 0

Two compounds drawn at random from those above, as already listed:
kinase-Nluc reporter destabilization hit call, inactive:
COc1cc(C(=O)NC2CCN(C)CC2)c(F)cc1Nc1ncc2c(n1)N(C1CCCC1)CC(F)(F)C(=O)N2C [TAK-960 (dihydrochloride)] (2.5 µM) 0
Nc1nc(OCC2CCCCC2)c2[nH]cnc2n1 (10 µM) 0
